Test system: M. smegmatis resistant mutants
Type: cell-based

For CN1CCC(O)(c2ccccc2)C(C(=O)c2ccccc2)C1 (stereo not shown) [Compound 1], the “increase of MIC of the mutants compared with wild-type” value was “fivefold” and the “increased resistance (cross-resistance) compared with wild-type” value was “between twofold and threefold”.

In the case of CN(CCC(=O)c1ccccc1)CCC(=O)c1ccccc1 [Compound 2, 3,3′-(methylazanediyl)bis(1-phenylpropan-1-one)], the “increase of MIC of the mutants compared with wild-type” value is reported as “two- to threefold” and the “increased resistance (cross-resistance) compared with wild-type” value is reported as “twofold to threefold”.
